PMC11282728
These are yes or no findings as the source states them, for the method shown. In cells and extracts the contact can be indirect. Some entries that bind do so weakly or less than the wild type.

Sequences of proteins named here, by UniProt entry; tags and fusion partners are left off. Residues count along the entry.
UniProt P27008: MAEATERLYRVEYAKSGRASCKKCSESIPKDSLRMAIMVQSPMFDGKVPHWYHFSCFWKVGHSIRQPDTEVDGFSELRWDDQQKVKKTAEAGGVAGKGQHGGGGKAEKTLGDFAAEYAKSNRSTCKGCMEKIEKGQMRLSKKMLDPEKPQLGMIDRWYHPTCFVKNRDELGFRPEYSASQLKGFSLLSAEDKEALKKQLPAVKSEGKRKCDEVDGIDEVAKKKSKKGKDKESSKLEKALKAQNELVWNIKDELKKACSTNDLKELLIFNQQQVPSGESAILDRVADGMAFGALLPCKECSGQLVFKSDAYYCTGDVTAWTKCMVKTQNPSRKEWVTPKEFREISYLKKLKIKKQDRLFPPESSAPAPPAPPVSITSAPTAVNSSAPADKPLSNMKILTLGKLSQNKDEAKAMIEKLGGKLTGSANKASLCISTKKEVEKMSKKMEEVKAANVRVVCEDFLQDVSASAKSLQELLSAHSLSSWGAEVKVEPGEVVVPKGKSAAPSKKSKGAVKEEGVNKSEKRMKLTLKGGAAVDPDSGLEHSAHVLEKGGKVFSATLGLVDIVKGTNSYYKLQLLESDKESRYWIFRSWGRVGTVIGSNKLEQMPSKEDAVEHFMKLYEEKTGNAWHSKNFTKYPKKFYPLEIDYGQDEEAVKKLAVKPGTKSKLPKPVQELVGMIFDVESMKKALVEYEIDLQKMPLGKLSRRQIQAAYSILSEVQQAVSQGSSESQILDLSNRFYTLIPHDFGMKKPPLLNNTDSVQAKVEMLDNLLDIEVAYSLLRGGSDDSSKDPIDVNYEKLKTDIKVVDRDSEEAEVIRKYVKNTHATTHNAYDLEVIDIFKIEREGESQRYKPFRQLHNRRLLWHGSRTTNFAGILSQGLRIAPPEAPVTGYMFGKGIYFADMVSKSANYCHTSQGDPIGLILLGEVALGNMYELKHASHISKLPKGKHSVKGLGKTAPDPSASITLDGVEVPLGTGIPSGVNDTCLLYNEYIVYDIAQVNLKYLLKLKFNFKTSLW
UniProt Q9JM53, residues 102-612: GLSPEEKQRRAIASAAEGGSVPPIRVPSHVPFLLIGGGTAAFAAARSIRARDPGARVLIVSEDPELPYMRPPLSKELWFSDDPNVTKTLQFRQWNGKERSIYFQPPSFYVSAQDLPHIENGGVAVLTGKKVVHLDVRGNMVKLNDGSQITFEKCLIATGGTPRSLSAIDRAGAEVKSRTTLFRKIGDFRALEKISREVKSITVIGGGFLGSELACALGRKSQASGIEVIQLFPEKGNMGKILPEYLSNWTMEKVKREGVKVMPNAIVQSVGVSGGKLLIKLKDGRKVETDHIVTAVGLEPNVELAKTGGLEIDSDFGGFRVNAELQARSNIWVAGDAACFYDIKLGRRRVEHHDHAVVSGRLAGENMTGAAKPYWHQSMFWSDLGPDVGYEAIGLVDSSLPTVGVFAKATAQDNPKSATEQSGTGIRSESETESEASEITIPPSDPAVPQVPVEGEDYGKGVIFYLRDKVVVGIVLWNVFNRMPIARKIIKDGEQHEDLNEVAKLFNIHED

Target: poly (ADP-ribose) polymerase 1 (PARP1) (rat (endogenous in neonatal rat cardiomyocytes)) (UniProt P27008)
Test: co-IP; cardiomyocytes lysed in RIPA buffer; 2 h at room temperature with anti-PARP1 (ab227244) or anti-IgG (ab182016), then Protein A/G beads 1 h; washed, Western blot

binding: binds
Substance: apoptosis-inducing factor mitochondria-associated 1 (AIFM1) (from UniProt Q9JM53 102-612)
